Data: patent publication US4525358A, “2-[4-(Diphenylmethyl)-1-piperazinyl]-acetic acids and their amides” (UCB Pharmaceuticals, Inc., priority 1981, dated 1985)

Legend:
in vivo [1] = conditions: rat, po, DL 50, Wistar rat, per os
in vivo [2] = conditions: mouse, po, per os

`O=C(O)COCCN1CCN(C(c2ccccc2)c2ccc(Cl)cc2)CC1` (stereo not shown) [J, 2-[2-[4-[(4-chlorophenyl)phenylmethyl]-1-piperazinyl]ethoxy]-acetic acid] gave an LD50 (in vivo [1]; female) of 865 mg/kg, an LD50 (in vivo [1]; male) of 703 mg/kg and an LD50 (in vivo [2]; DL 50, female mouse) of 752 mg/kg. For the same molecule, the LD50 (in vivo [2]; DL 50, male mouse) was 600 mg/kg.
